Source: PubChem BioAssay AID540276 (National Center for Advancing Translational Sciences (NCATS), 2011)
Where “and” joins values, the source holds several entries; their conditions need not be identical. Equal entries are not always repeated. The whole screen tested about 300,000 compounds, of which about 5,400 (1.8%) were called active. The inconclusive results got no clear call from the source; some entries with a clear call stand among them for comparison. Calls follow the shape of the full dose curve; tested in HEK293 cells. Potencies of inconclusive entries are doubtful fits and often do not repeat.

Experiment: qHTS for inhibitors of binding or entry into cells for Marburg Virus
Details: Marburg virus pseudotyped entry inhibition, cell reporter; activity change, negative = inhibition: at 37.8 µM (top of the series) unless noted
% is scaled to controls: 0 for no effect and ±100 for the full control effect; potency is read from the fitted curve at half-maximal effect.

SMILES	Potency	activity change, negative = inhibition
CCOC(=O)Cn1nnnc1CN(Cc1ccc(OC)cc1)Cc1cc2cc(CC)ccc2[nH]c1=O	inconclusive: 29.1 µM [inhibitor, single point]	–
O=C(N/N=C/c1ccc(O)cc1)c1ccc(COc2cc(Cl)ccc2Cl)o1	inconclusive: 0.794 µM [inhibitor, full curve, poor fit]	–
O=C(CSc1nc2cc(Cl)ccc2s1)NCc1ccc2c(c1)OCO2	–	inactive: 0.777%
CCCCn1c(SCC(=O)N2c3ccccc3Sc3ccccc32)nc2c1c(=O)n(C)c(=O)n2C	active: 11.2 µM	–
COc1ccccc1NC(=O)N1CCC(c2nc3cc(C)c(C)cc3[nH]2)CC1	inconclusive: 7.08 µM [inhibitor, partial curve, poor fit]	–
COc1ccc(NC(=O)CC2(CC(=O)O)CCCC2)cc1	–	inactive: -3.8% [at 46.1 µM]
CCOC(=O)Cn1c(=O)n(C2CCCC2)c(=O)c2ccccc21	inconclusive: 2.51 µM [activator, full curve, poor fit]	–
O=c1cc(CN2CCN(S(=O)(=O)c3ccccc3)CC2)nc2sccn12	inconclusive: 0.562 µM [inhibitor, full curve, poor fit]	–
COc1ccc(C(=O)C2CCCN(Cc3cccc(C)n3)C2)c(OC)c1 (configuration not stated)	inconclusive: 25.9 µM [inhibitor, single point]	–
CC(C)C[C@H](NC(=O)N1CCn2c1nc1ccccc12)C(=O)NCc1ccc2c(c1)OCO2	inconclusive: 35.5 µM [inhibitor, single point]	–
COc1ccc(Cl)cc1NC(=O)CSC1=NN2CCCC(=O)N=C2S1	inconclusive: 35.5 µM [inhibitor, single point]	–
O=C(Nc1cccc(C(F)(F)F)c1)Nc1ccc(N2CCCC2)c(S(=O)(=O)Nc2ccccc2Cl)c1	active: 2.51 µM	–
Cc1cccc(NC(=O)C2CCN(C(=O)NCc3ccccc3)CC2)c1C	–	inactive: 3.44% [at 46.1 µM]
N#Cc1c(NC(=O)CCCC(=O)O)sc2c1CCCCC2	active: 1.16 µM	–
O=C(CNc1cccc(S(=O)(=O)N2CCCC2)c1)Nc1ccc(F)c(F)c1	inconclusive: 17.8 µM [inhibitor, partial curve, poor fit]	–
CCc1c(C)nc2cc(-c3ccc(OC)c(OC)c3)nn2c1N1CCCC1	inconclusive: 10.3 µM [inhibitor, partial curve]	–
CN1CCN(c2nc3ccccc3nc2NS(=O)(=O)c2ccc(Br)cc2)CC1	–	inactive: 3.44%
O=C(N/N=C\c1ccc(F)cc1)c1ccc(F)cc1	inconclusive: 5.62 µM [activator, single point]	–
Cc1ccc2nc(-c3ccc(NC(=O)c4cccnc4)cc3)oc2c1	inconclusive: 25.9 µM [inhibitor, single point]	–
COc1ccc(Cc2nccc3cc(OC)c(OC)cc23)cc1OC	inactive and inconclusive: 501 nM [inhibitor, full curve]	–
CCn1c(SCC(=O)Nc2nc3ccccc3s2)nnc1-c1ccc(Br)cc1	–	inactive: -0.845%
Cc1onc(-c2ccccc2Cl)c1C(=O)N(Cc1nc(-c2ccccc2)no1)C1CCCCC1	inconclusive: 18.3 µM [inhibitor, single point]	–
CCOc1ccc(-n2ccnc(SCC(=O)Nc3ccc(CC)cc3)c2=O)cc1	inconclusive: 22.4 µM [inhibitor, single point]	–

SMILES	Potency	activity change, negative = inhibition
CCOC(=O)NN=C1C[C@@H](O)[C@@H](O)[C@@H]2[C@H]3C(=O)N(c4cccc(Oc5ccccc5)c4)C(=O)[C@@H]3CC[C@@H]12	inconclusive: 2.37 µM [activator, partial curve, poor fit]	–
CC(=O)Nc1cccc(OCCCNS(=O)(=O)c2ccc(C#N)cc2)c1	inconclusive: 5.01 µM [activator, full curve, poor fit]	–
COc1ccc(-c2cc(C(=O)N3CCN(c4ccccn4)CC3)c3ccccc3n2)cc1	inconclusive: 29.1 µM [inhibitor, single point]	–
COc1cccc(NC(=O)c2cc3c(=O)n(C)c4ccccc4c3n2C)c1	–	inactive: 14.7% [at 46.1 µM]
Cc1ccc(Nc2nc3ccccc3n3nnnc23)cc1	inconclusive: 29.1 µM [inhibitor, single point]	–
COc1ccc(O[C@H]2C=C[C@@H](c3ccccc3)O[C@H]2COC(=O)CC/C(C)=N\OC[C@@H](O)COCc2ccco2)cc1	–	inactive: 9.87% [at 14.2 µM]
C=CCN(c1ccccc1OC)S(=O)(=O)c1ccc(Cl)c(C(=O)Nc2ccc(N3CCOCC3)cc2)c1	inconclusive: 7.94 µM [inhibitor, full curve, poor fit]	–
CCCc1[nH][nH]c(=O)c1C(c1ccccc1)C(C#N)C#N (configuration not stated)	–	inactive: 2.14%
Cn1cnc2nc(Cl)nc(Cl)c21	inconclusive: 8.91 µM [inhibitor, partial curve, poor fit]	–
COc1ccc(Cl)cc1NC(=O)CN(C)C(=O)c1ccc2c(c1)CC(c1ccccc1)OC2=O (configuration not stated)	inconclusive: 22.4 µM [inhibitor, single point]	–
Oc1ccc(Oc2ccc3c(C(F)(F)F)cc(C(F)(F)F)nc3n2)cc1	inconclusive: 18.3 µM [inhibitor, single point]	–
N=C1C(c2nc3ccccc3s2)=C(O)CN1NC(=O)c1c[nH]c2ccccc12	inconclusive: 6.31 µM [inhibitor, single point]	–
CCOc1ccc(S(=O)(=O)N(CC(=O)NCCc2ccc(OC)c(OC)c2)c2ccccc2)cc1	–	inactive: -1.33% [at 46.1 µM]
O=C(COC(=O)c1c2c(nc3ccccc13)CCCC2)Nc1ccc2c(c1)OCO2	inconclusive: 17.8 µM [inhibitor, partial curve, poor fit]	–
Brc1ccc(-c2nc3ncccn3c2Nc2ccc3c(c2)OCCO3)o1	–	inactive: -7.96% [at 46.1 µM]
CC(COc1ccc(/C=C/c2ccccc2)cc1)[N+](C)(C)C (configuration not stated)	inconclusive: 6.51 µM [activator, single point]	–
C=C(C)c1cccc(C(C)(C)NC(=O)N(C)C2CCN(C)CC2)c1	inconclusive: 0.631 µM [inhibitor, full curve, poor fit]	–
O=C(CSc1nc(=O)n2ccccc2n1)N1N=C(c2cccs2)CC1c1ccc(F)cc1 (configuration not stated)	inconclusive: 5.62 µM [activator, single point]	–
O=C(NCCSc1c(-c2ccccc2)[nH]c2ccccc12)c1ccc(S(=O)(=O)N2CCOCC2)cc1	inconclusive: 35.5 µM [inhibitor, single point]	–
CCOc1ccc(C(c2nnnn2C(C)(C)C)N2CCN(C(=O)c3ccco3)CC2)cc1 (configuration not stated)	–	inactive: 14.8% [at 46.1 µM]
COc1ccc(-c2[nH]ncc2CNCC(C)(C)N2CCOCC2)cc1F	inconclusive: 7.94 µM [inhibitor, single point]	–
Cc1ccc(S(=O)(=O)Cn2nnnc2C(C)N2CCN(C(=O)c3ccco3)CC2)cc1 (configuration not stated)	–	inactive: 15.3%
c1ccc(C[n+]2csc3ccccc32)cc1	–	inactive: 13.2%

SMILES	Potency	activity change, negative = inhibition
COc1ccc(C(=O)Nc2ccc(N3CCCC3)cc2)cc1OC	–	inactive: -1.05% [at 46.1 µM]
Cc1nn(CCCC(=O)NCCc2ccccc2)c(C)c1[N+](=O)[O-]	–	inactive: 9.17% [at 46.1 µM]
C=CCN=C1NN=C(c2cc(C)n(CCOC)c2C)CS1	inconclusive: 6.51 µM [inhibitor, full curve, poor fit]	–
CN1CCc2c(sc3nc(NN)n(Cc4ccccc4)c(=O)c23)C1	inconclusive: 20 µM [inhibitor, partial curve, poor fit]	–
CCc1cc[n+](/C(C(=S)Nc2cccc(C)c2)=C(/[O-])c2ccc(C)c([N+](=O)[O-])c2)cc1	–	inactive: -7.47% [at 46.1 µM]
CCN(CC)CCN1C(=O)C2C3c4ccccc4C(c4ccccc43)C2C1=O (configuration not stated)	inconclusive: 35.5 µM [inhibitor, single point]	–
COc1ccc(/C=C(\C#N)C(=O)NCc2cccs2)cc1OC	–	inactive: 1.14%
CCN(CCn1cccn1)C(=O)CCc1nnc(-c2ccc3c(c2)OCO3)o1	inconclusive: 31.6 µM [activator, single point]	–
O=C1NC(c2ccccc2Cl)Nc2ccccc21 (configuration not stated)	inconclusive: 0.73 µM [inhibitor, full curve, poor fit]	–
O=C(O)c1cc2nc(-c3cccs3)cc(C(F)(F)F)n2n1	–	inactive: -18.7% [at 46.1 µM]
CC(=O)c1ccc(NC(=O)Cn2cc3c(n2)CCCC3)cc1	–	inactive: 2.7% [at 46.1 µM]
O=S(=O)(NCc1ccncc1)c1ccccc1	–	inactive: -4.36%
Cc1ccc(-c2csc(NC(=O)c3cnccn3)n2)cc1C	inconclusive: 1.12 µM [activator, full curve, poor fit]	–
CCOCC(=O)Nc1c(C(=O)Nc2ccccc2OC)oc2ccccc12	inconclusive: 29.1 µM [inhibitor, single point]	–
CCN(CC)CCN1C(=O)c2ccccc2NC1c1ccc(Br)cc1 (configuration not stated)	inconclusive: 35.5 µM [inhibitor, single point]	–
CN1C(=O)C(=O)N(c2cccc(C(F)(F)F)c2)C1=O	inconclusive: 2.51 µM [inhibitor, single point]	–
Cc1ccc(-n2nc(C(=O)O)c(O)cc2=O)cc1	–	inactive: -0.0437% [at 46.1 µM]
C=CC[C@H]1C(=O)N2[C@@H](C[C@@H](C)[C@@H]2c2ccccc2)[C@@H](CC=C)C(=O)N2[C@H]1C[C@@H](C)[C@@H]2c1ccccc1	inconclusive: 0.0011 µM [inhibitor]	–
Cc1cc(NS(=O)(=O)c2ccc(NC(=S)NC(=O)c3ccc(C(C)(C)C)cc3)cc2)no1	inconclusive: 20 µM [inhibitor, single point]	–
Cc1ccc(C)c(CN2C(=O)c3ccccc3S(=O)c3ccc(C(=O)NCCC4=CCCCC4)cc32)c1 (configuration not stated)	inconclusive: 1.78 µM [inhibitor, partial curve, poor fit]	–
COc1cccc(C(=O)Nc2ccc(C(=O)O)cc2)c1	–	inactive: -11%

Already shown: an excerpt of the list.
SMILES	Potency	activity change, negative = inhibition
CN1CCc2c(sc3nc(NN)n(Cc4ccccc4)c(=O)c23)C1	inconclusive: 20 µM [inhibitor, partial curve, poor fit]	–
CCc1cc[n+](/C(C(=S)Nc2cccc(C)c2)=C(/[O-])c2ccc(C)c([N+](=O)[O-])c2)cc1	–	inactive: -7.47% [at 46.1 µM]
CCN(CC)CCN1C(=O)C2C3c4ccccc4C(c4ccccc43)C2C1=O (configuration not stated)	inconclusive: 35.5 µM [inhibitor, single point]	–
COc1ccc(/C=C(\C#N)C(=O)NCc2cccs2)cc1OC	–	inactive: 1.14%
CCN(CCn1cccn1)C(=O)CCc1nnc(-c2ccc3c(c2)OCO3)o1	inconclusive: 31.6 µM [activator, single point]	–
O=C1NC(c2ccccc2Cl)Nc2ccccc21 (configuration not stated)	inconclusive: 0.73 µM [inhibitor, full curve, poor fit]	–
